Results are given in words; binding and its absence hold for the method and conditions named. In cells and extracts the contact can be indirect. These calls come from enrichment with a bait or labelling near it, and not all partners need be listed. Tags and fused reporters may be left off the sequences shown.
B1: Heat shock protein 75 kDa, mitochondrial (protein, UniProt Q12931 60-704)
chain: STQTAEDKEEPLHSIISSTESVQGSTSKHEFQAETKKLLDIVARSLYSEKEVFIRELISNASDALEKLRHKLVSDGQALPEMEIHLQTNAEKGTITIQDTGIGMTQEELVSNLGTIARSGSKAFLDALQNQAEASSKIIGQFGVGFYSAFMVADRVEVYSRSAAPGSLGYQWLSDGSGVFEIAEASGVRTGTKIIIHLKSDCKEFSSEARVRDVVTKYSNFVSFPLYLNGRRMNTLQAIWMMDPKDVREWQHEEFYRYVAQAHDKPRYTLHYKTDAPLNIRSIFYVPDMKPSMFDVSRELGSSVALYSRKVLIQTKATDILPKWLRFIRGVVDSEDIPLNLSRELLQESALIRKLRDVLQQRLIKFFIDQSKKDAEKYAKFFEDYGLFMREGIVTATEQEVKEDIAKLLRYESSALPSGQLTSLSEYASRMRAGTRNIYYLCAPNRHLAEHSPYYEAMKKKDTEVLFCFEQFDELTLLHLREFDKKKLISVETDIVVDHYKEEKFEDRSPAAECLSEKETEELMAWMRNVLGSRVTNVKVTLRLDTHPAMVTVLEMGAARHFLRMQQLAKTQEERAQLLQPTLEINPRHALIKKLNQLRASEPGLAQLLVDQIYENAMIAAGLVDDPRAMVGRLNELLVKALERH
B2: 14-3-3 protein gamma, endogenous (protein, UniProt P61981 1-247)
chain: MVDREQLVQKARLAEQAERYDDMAAAMKNVTELNEPLSNEERNLLSVAYKNVVGARRSSWRVISSIEQKTSADGNEKKIEMVRAYREKIEKELEAVCQDVLSLLDNYLIKNCSETQYESKVFYLKMKGDYYRYLAEVATGEKRATVVESSEKAYSEAHEISKEHMQPTHPIRLGLALNYSVFYYEIQNAPEQACHLAKTAFDDAIAELDTLNEDSYKDSTLIMQLLRDNLTLWTSDQQDDDGGEGNN
B3: Protein disulfide-isomerase A6 (protein, UniProt Q15084 20-440)
chain: LYSSSDDVIELTPSNFNREVIQSDSLWLVEFYAPWCGHCQRLTPEWKKAATALKDVVKVGAVDADKHHSLGGQYGVQGFPTIKIFGSNKNRPEDYQGGRTGEAIVDAALSALRQLVKDRLGGRSGGYSSGKQGRSDSSSKKDVIELTDDSFDKNVLDSEDVWMVEFYAPWCGHCKNLEPEWAAAASEVKEQTKGKVKLAAVDATVNQVLASRYGIRGFPTIKIFQKGESPVDYDGGRTRSDIVSRALDLFSDNAPPPELLEIINEDIAKRTCEEHQLCVVAVLPHILDTGAAGRNSYLEVLLKLADKYKKKMWGWLWTEAGAQSELETALGIGGFGYPAMAAINARKMKFALLKGSFSEQGINEFLRELSFGRGSTAPVGGGAFPTIVEREPWDGRDGELPVEDDIDLSDVELDDLGKDEL
B4: Neutral alpha-glucosidase AB (protein, UniProt Q14697 29-944)
chain: ITLAVDRSNFKTCEESSFCKRQRSIRPGLSPYRALLDSLQLGPDSLTVHLIHEVTKVLLVLELQGLQKNMTRFRIDELEPRRPRYRVPDVLVADPPIARLSVSGRDENSVELTMAEGPYKIILTARPFRLDLLEDRSLLLSVNARGLLEFEHQRAPRVSQGSKDPAEGDGAQPEETPRDGDKPEETQGKAEKDEPGAWEETFKTHSDSKPYGPMSVGLDFSLPGMEHVYGIPEHADNLRLKVTEGGEPYRLYNLDVFQYELYNPMALYGSVPVLLAHNPHRDLGIFWLNAAETWVDISSNTAGKTLFGKMMDYLQGSGETPQTDVRWMSETGIIDVFLLLGPSISDVFRQYASLTGTQALPPLFSLGYHQSRWNYRDEADVLEVDQGFDDHNLPCDVIWLDIEHADGKRYFTWDPSRFPQPRTMLERLASKRRKLVAIVDPHIKVDSGYRVHEELRNLGLYVKTRDGSDYEGWCWPGSAGYPDFTNPTMRAWWANMFSYDNYEGSAPNLFVWNDMNEPSVFNGPEVTMLKDAQHYGGWEHRDVHNIYGLYVHMATADGLRQRSGGMERPFVLARAFFAGSQRFGAVWTGDNTAEWDHLKISIPMCLSLGLVGLSFCGADVGGFFKNPEPELLVRWYQMGAYQPFFRAHAHLDTGRREPWLLPSQHNDIIRDALGQRYSLLPFWYTLLYQAHREGIPVMRPLWVQYPQDVTTFNIDDQYLLGDALLVHPVSDSGAHGVQVYLPGQGEVWYDIQSYQKHHGPQTLYLPVTLSSIPVFQRGGTIVPRWMRVRRSSECMKDDPITLFVALSPQGTAQGELFLDDGHTFNYQTRQEFLLRRFSFSGNTLVSSSADPEGHFETPIWIERVVIIGAGKPAAVVLQTKGSPESRLSFQHDPETSVLVLRKPGINVASDWSIHLR
B5: mRNA export factor (protein, UniProt P78406 1-368)
chain: MSLFGTTSGFGTSGTSMFGSATTDNHNPMKDIEVTSSPDDSIGCLSFSPPTLPGNFLIAGSWANDVRCWEVQDSGQTIPKAQQMHTGPVLDVCWSDDGSKVFTASCDKTAKMWDLSSNQAIQIAQHDAPVKTIHWIKAPNYSCVMTGSWDKTLKFWDTRSSNPMMVLQLPERCYCADVIYPMAVVATAERGLIVYQLENQPSEFRRIESPLKHQHRCVAIFKDKQNKPTGFALGSIEGRVAIHYINPPNPAKDNFTFKCHRSNGTNTSAPQDIYAVNGIAFHPVHGTLATVGSDGRFSFWDKDARTKLKTSEQLDQPISACCFNHNGNIFAYASSYDWSKGHEFYNPQKKNYIFLRNAAEELKPRNKK
B6: Stromal cell-derived factor 2-like protein 1 (protein, UniProt Q9HCN8 29-221)
chain: AKTGAELVTCGSVLKLLNTHHRVRLHSHDIKYGSGSGQQSVTGVEASDDANSYWRIRGGSEGGCPRGSPVRCGQAVRLTHVLTGKNLHTHHFPSPLSNNQEVSAFGEDGEGDDLDLWTVRCSGQHWEREAAVRFQHVGTSVFLSVTGEQYGSPIRGQHEVHGMPSANTHNTWKAMEGIFIKPSVEPSAGHDEL
B7: Non-POU domain-containing octamer-binding protein (protein, UniProt Q15233 1-471)
chain: MQSNKTFNLEKQNHTPRKHHQHHHQQQHHQQQQQQPPPPPIPANGQQASSQNEGLTIDLKNFRKPGEKTFTQRSRLFVGNLPPDITEEEMRKLFEKYGKAGEVFIHKDKGFGFIRLETRTLAEIAKVELDNMPLRGKQLRVRFACHSASLTVRNLPQYVSNELLEEAFSVFGQVERAVVIVDDRGRPSGKGIVEFSGKPAARKALDRCSEGSFLLTTFPRPVTVEPMDQLDDEEGLPEKLVIKNQQFHKEREQPPRFAQPGSFEYEYAMRWKALIEMEKQQQDQVDRNIKEAREKLEMEMEAARHEHQVMLMRQDLMRRQEELRRMEELHNQEVQKRKQLELRQEEERRRREEEMRRQQEEMMRRQQEGFKGTFPDAREQEIRMGQMAMGGAMGINNRGAMPPAPVPAGTPAPPGPATMMPDGTLGLTPPTTERFGQAATMEGIGAIGGTPPAFNRAAPGAEFAPNKRRRY
B8: Hsp90 co-chaperone Cdc37 (protein, UniProt Q16543 1-378)
chain: MVDYSVWDHIEVSDDEDETHPNIDTASLFRWRHQARVERMEQFQKEKEELDRGCRECKRKVAECQRKLKELEVAEGGKAELERLQAEAQQLRKEERSWEQKLEEMRKKEKSMPWNVDTLSKDGFSKSMVNTKPEKTEEDSEEVREQKHKTFVEKYEKQIKHFGMLRRWDDSQKYLSDNVHLVCEETANYLVIWCIDLEVEEKCALMEQVAHQTIVMQFILELAKSLKVDPRACFRQFFTKIKTADRQYMEGFNDELEAFKERVRGRAKLRIEKAMKEYEEEERKKRLGPGGLDPVEVYESLPEELQKCFDVKDVQMLQDAISKMDPTDAKYHMQRCIDSGLWVPNSKASEAKEGEEAGPGDPLLEAVPKTGDEKDVSV

The chains behind the UniProt entries cited, without tags or fusion partners.
UniProt P16788: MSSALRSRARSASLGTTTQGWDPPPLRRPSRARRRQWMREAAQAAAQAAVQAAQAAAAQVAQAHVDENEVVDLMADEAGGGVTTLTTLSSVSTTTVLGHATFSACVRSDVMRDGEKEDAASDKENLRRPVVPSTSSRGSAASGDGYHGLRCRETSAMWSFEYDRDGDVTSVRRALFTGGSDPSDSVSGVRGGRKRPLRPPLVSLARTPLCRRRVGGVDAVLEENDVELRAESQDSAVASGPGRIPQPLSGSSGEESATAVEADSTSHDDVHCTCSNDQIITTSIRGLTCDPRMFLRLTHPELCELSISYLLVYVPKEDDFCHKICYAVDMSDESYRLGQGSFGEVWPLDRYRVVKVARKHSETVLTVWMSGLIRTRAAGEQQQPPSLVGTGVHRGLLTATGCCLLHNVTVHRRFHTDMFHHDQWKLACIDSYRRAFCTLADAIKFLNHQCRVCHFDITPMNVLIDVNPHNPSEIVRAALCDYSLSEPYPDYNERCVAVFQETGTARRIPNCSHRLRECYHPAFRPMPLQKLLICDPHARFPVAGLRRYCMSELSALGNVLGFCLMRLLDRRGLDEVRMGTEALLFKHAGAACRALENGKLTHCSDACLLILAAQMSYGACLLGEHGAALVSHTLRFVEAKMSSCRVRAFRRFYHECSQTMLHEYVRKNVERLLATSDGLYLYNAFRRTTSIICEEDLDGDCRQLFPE
UniProt Q9UNE7: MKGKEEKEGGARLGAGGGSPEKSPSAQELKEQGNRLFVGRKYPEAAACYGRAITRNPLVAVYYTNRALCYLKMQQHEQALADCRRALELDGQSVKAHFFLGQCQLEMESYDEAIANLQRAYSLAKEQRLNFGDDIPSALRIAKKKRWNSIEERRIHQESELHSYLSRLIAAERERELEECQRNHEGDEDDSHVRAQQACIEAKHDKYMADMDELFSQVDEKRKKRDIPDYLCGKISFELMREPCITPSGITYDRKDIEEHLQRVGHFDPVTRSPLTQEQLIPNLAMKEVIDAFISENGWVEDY
UniProt P60842: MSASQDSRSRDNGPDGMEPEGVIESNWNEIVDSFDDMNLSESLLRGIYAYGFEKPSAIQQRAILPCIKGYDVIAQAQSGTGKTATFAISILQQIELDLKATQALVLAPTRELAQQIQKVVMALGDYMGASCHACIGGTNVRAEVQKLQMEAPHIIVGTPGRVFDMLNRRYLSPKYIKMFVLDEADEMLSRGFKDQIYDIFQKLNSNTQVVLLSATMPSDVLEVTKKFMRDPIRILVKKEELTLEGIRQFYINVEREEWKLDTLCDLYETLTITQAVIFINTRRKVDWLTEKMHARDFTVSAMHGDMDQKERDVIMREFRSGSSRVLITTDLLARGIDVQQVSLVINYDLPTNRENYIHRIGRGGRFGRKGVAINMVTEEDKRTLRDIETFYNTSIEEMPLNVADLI
UniProt Q13263: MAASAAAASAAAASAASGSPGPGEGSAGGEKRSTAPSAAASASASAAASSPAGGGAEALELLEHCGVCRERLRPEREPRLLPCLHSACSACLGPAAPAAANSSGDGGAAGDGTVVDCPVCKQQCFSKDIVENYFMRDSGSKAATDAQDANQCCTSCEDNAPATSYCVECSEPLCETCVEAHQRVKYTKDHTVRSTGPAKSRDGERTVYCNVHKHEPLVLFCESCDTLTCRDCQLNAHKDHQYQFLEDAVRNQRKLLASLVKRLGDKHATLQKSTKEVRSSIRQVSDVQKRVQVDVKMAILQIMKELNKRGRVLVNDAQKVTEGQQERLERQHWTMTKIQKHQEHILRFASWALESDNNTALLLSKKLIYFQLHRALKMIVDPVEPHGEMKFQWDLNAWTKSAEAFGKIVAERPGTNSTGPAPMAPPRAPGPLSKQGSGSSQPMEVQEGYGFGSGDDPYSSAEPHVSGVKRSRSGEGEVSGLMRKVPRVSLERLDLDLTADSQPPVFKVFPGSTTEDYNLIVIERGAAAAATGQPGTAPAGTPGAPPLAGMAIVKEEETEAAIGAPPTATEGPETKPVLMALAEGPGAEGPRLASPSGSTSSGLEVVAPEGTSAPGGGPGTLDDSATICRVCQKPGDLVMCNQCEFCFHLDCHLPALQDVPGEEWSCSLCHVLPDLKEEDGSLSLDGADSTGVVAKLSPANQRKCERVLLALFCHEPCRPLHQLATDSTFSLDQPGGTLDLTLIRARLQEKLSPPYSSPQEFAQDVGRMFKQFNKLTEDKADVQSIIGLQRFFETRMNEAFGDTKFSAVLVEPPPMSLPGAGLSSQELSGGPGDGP
UniProt P07737: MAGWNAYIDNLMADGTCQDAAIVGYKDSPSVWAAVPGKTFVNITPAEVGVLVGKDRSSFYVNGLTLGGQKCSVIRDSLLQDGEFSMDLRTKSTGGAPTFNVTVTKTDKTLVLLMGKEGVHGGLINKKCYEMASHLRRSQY
UniProt P60660: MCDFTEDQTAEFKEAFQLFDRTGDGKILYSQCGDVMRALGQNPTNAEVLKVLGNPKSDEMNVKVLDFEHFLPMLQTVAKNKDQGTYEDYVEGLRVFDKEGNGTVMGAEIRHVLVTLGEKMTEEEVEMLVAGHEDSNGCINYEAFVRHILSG
UniProt Q92841: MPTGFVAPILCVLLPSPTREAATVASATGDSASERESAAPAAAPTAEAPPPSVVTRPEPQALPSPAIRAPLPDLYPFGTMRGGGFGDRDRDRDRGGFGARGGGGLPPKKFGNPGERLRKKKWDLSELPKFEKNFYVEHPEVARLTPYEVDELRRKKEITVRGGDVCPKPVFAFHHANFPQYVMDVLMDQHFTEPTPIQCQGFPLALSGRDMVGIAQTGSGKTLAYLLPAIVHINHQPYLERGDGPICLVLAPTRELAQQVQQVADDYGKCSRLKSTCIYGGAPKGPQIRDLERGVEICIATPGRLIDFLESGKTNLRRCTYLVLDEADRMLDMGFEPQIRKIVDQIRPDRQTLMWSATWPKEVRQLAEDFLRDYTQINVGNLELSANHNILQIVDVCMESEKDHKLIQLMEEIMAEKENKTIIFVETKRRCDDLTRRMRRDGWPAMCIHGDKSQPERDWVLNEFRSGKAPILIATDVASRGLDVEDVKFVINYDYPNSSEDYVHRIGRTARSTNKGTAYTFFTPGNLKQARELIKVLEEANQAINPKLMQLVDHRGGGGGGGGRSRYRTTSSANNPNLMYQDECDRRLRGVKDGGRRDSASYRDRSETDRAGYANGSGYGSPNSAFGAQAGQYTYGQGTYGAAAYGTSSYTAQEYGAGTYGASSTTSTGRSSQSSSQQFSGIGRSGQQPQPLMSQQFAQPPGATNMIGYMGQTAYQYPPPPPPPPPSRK
UniProt Q14980: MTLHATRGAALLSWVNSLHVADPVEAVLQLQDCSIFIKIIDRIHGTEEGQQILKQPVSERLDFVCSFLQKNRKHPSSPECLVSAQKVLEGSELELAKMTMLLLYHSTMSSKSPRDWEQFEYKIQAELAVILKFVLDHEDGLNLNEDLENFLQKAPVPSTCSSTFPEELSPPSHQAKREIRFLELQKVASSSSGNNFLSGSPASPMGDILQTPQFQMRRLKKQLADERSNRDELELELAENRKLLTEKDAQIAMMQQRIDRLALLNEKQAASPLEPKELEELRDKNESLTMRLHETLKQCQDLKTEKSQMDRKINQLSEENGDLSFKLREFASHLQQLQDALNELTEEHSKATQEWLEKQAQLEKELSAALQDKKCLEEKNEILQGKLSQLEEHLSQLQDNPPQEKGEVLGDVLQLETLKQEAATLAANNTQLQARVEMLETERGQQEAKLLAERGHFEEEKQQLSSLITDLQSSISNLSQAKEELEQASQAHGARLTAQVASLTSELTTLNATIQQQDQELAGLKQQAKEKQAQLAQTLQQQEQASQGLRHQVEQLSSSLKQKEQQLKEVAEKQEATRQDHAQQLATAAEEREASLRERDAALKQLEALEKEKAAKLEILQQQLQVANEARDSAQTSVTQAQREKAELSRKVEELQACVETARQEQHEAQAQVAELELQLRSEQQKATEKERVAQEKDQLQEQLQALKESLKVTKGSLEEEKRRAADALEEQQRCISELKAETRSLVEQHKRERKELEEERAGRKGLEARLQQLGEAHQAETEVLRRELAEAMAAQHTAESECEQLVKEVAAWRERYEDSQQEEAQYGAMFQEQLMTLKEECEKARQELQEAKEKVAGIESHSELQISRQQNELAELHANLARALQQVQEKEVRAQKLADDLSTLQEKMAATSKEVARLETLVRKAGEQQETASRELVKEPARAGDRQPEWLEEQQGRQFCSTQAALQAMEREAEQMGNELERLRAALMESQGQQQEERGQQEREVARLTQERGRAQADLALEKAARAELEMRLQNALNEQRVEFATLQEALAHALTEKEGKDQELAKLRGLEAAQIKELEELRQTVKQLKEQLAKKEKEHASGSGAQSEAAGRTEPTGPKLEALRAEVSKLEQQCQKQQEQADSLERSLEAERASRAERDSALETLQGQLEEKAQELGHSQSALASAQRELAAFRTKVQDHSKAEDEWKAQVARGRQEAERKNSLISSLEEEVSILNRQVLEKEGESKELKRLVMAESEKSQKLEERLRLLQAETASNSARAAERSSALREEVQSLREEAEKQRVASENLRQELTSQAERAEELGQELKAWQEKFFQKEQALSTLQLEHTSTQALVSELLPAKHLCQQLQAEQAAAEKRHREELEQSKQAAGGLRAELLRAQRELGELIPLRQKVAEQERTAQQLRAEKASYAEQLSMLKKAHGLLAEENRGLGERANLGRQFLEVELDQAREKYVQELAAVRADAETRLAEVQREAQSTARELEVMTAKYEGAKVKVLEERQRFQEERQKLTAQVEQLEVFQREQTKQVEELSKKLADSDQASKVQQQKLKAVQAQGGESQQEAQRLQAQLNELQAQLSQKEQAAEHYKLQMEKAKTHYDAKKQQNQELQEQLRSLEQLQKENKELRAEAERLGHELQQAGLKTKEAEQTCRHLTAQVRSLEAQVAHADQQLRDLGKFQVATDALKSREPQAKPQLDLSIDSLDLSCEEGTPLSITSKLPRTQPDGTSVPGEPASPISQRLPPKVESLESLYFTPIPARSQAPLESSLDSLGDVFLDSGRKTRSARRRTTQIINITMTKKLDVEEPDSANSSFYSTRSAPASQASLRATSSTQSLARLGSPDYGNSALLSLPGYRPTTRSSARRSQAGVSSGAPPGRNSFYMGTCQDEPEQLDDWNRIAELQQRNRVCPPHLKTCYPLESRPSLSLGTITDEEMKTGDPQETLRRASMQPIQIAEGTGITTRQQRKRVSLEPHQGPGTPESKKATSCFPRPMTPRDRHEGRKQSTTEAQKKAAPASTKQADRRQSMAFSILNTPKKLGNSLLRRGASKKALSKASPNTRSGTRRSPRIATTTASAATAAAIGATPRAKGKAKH
UniProt P17066: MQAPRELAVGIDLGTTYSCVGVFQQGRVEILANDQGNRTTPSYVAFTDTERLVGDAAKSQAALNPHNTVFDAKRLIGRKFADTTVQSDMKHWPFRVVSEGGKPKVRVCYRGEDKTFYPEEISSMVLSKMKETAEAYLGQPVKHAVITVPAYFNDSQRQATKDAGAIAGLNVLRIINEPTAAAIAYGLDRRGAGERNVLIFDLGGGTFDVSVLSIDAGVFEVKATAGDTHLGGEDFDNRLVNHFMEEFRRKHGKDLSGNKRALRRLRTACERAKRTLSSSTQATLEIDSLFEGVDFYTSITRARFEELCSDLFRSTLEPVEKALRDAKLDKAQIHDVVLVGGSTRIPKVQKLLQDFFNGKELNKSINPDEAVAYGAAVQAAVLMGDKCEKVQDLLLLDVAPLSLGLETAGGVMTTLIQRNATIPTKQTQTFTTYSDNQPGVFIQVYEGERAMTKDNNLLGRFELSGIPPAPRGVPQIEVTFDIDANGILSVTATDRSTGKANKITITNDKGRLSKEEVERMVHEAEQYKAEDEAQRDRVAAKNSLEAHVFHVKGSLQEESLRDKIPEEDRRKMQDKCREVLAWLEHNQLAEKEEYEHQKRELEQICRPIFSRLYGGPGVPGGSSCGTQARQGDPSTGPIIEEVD
UniProt O60884: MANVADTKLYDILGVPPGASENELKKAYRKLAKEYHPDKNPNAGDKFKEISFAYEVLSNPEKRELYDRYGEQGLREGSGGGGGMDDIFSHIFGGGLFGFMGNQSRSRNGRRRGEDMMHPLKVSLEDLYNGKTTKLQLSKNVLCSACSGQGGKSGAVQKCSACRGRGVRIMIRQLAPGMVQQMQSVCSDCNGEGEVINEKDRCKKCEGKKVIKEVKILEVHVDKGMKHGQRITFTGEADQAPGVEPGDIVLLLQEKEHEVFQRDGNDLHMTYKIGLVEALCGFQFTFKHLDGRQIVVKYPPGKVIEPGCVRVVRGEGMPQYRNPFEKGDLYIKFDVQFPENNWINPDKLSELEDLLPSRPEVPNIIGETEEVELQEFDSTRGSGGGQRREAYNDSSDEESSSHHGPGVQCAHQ

target: Carboxy-terminally Halo-tagged UL97 (pFC14a-HA-UL97 WT) (human cytomegalovirus (HCMV)) (UniProt P16788); assay: affinity purification with mass spectrometry; C-terminally Halo-tagged UL97 or Halo alone transiently expressed in HEK-293T; lysate on HaloLink beads, 1 h bead incubation; eluted with TEV protease; LC-MS/MS (Orbitrap Elite); two biological replicates

Row | Molecule | binding
1 | Succinate dehydrogenase [ubiquinone] flavoprotein subunit, mitochondrial (from UniProt P31040 43-664) | binds
2 | E3 ubiquitin-protein ligase CHIP (from UniProt Q9UNE7 1-303) | binds
3 | Heat shock protein 105 kDa (from UniProt Q92598 1-858) | binds
4 | Phosphoglycerate mutase 1 (from UniProt P18669 1-254) | binds
5 | Eukaryotic initiation factor 4A-I (from UniProt P60842 1-406) | binds
6 | Transcription intermediary factor 1-beta (from UniProt Q13263 1-835) | binds
7 | Profilin-1 (from UniProt P07737 1-140) | binds
8 | Phosphatidylethanolamine-binding protein 1 (from UniProt P30086 1-187) | binds
9 | HSP90AA1 (from UniProt P07900 1-732) | binds
10 | Cell division cycle protein 20 homolog (from UniProt Q12834 1-499) | binds
11 | Elongation factor 1-gamma (from UniProt P26641 1-437) | binds
12 | Cyclin-A2 (from UniProt P20248 1-432) | binds
13 | Probable ubiquitin carboxyl-terminal hydrolase FAF-X (from UniProt Q93008 1-2554) | binds
14 | 14-3-3 protein beta/alpha, endogenous (from UniProt P31946 1-246) | binds
15 | Serine/threonine-protein phosphatase 2A 65 kDa regulatory subunit A alpha isoform (from UniProt P30153 1-589) | binds
16 | Myosin light polypeptide 6 (from UniProt P60660 1-151) | binds
17 | Protein disulfide-isomerase A3 (from UniProt P30101 25-505) | binds
18 | Basigin (from UniProt P35613 22-385) | binds
19 | 14-3-3 ε, endogenous (from UniProt P62258 1-255) | binds

Row | Molecule | binding
20 | DnaJ homolog subfamily A member 1 (from UniProt P31689 1-397) | binds
21 | Serine/threonine-protein kinase MARK2 (from UniProt Q7KZI7 1-788) | binds
22 | T-complex protein 1 subunit eta (from UniProt Q99832 1-543) | binds
23 | Probable ATP-dependent RNA helicase DDX17 (from UniProt Q92841 1-729) | binds
24 | Transitional endoplasmic reticulum ATPase (from UniProt P55072 1-806) | binds
25 | Nuclear mitotic apparatus protein 1 (from UniProt Q14980 1-2115) | binds
26 | MAP/microtubule affinity-regulating kinase 3 (from UniProt P27448 1-753) | binds
27 | Heat shock 70 kDa protein 6 (from UniProt P17066 1-643) | binds
28 | DnaJ homolog subfamily A member 2 (from UniProt O60884 1-412) | binds
29 | TUBA1B (from UniProt P68363 1-451) | binds
30 | DnaJ homolog subfamily B member 11 (from UniProt Q9UBS4 23-358) | binds
31 | B1 | binds
32 | B2 | binds
33 | B3 | binds
34 | B4 | binds
35 | B5 | binds
36 | B6 | binds
37 | B7 | binds
38 | B8 | binds
